HELM strings list residues between dots; [ac] is acetyl, [am] amide, other brackets name non-standard units.
Assay: peptide made by a vendor
Details: whole synthesis

PEPTIDE1{A.Y.M.T.M.K.I.R.N}$$$$V2.0
final HPLC purity: exceed 95%

— patent publication US6599501B1 (Steeno Research Group A/S, priority 1994, dated 2003)
